Laboratory results as given in the supplement of paper PMC4683952.
Structures can show the parent of a compound that is named as a salt. Screen size: about 1,200 compounds; about 50 (4%) showed activity. Cut-off read from the data, not from the text of the source: all actives reach 1.3 or more but so do some inactives. The list shows a part of the results.

System: Lgr5 (MarsCy1-Lgr5-EGFP, U2OS)
Assay: cell-surface Lgr5 expression (SCi1 fluorescence, background-subtracted) relative to WT DMSO (fold of DMSO control); higher = more Lgr5 at the plasma membrane, active = hit call of the paper
Details: U2OS MarsCy1-Lgr5-EGFP stable; treatment time: overnight; 16 µM; library: Johns Hopkins Clinical Compound Library

Row | Structure (SMILES) | cell-surface Lgr5 expression
1 | CCOC(=O)c1cnc2c(cnn2CC)c1NN=C(C)C [Etazolate hydrochloride, solid] | inactive: 1.32
2 | CCOC(=O)c1cnc2c(cnn2CC)c1NN=C(C)C [Etazolate Hydrochloride] | inactive: 1.35
3 | CCOc1ccc2nc(S(N)(=O)=O)sc2c1 [Ethoxzolamide (6-Ethoxy-2-benzothiazolesulfonamide)] | inactive: 1.15
4 | O=c1oc2cc(O)ccc2s1 [Tioxolone (6-hydroxy-1,3-benzoxathiol-2-one)] | inactive: 1.13
5 | CC1/C=C/C=C/C=C/C=C/C=C/C=C/C=C/C(OC2O[C@H](C)[C@@H](O)[C@H](N)[C@@H]2O)CC(O)C(C(=O)O)C(O)CC(=O)CC(O)CC(O)CC(O)CC(=O)CCCC(=O)CC(=O)OC1C(C)CC(C)C(O)CC(=O)c1ccc(N)cc1 (stereo not given in full) [Candicidin] | inactive: 0.694
6 | CN/C(=N\CCSCc1nc[nH]c1C)NC#N [Cimetidine] | inactive: 1.11
7 | [Li+].[OH-] [Lithium Hydroxide] | inactive: 1.16
8 | O=C(O)c1cc(/N=N/c2ccc(S(=O)(=O)Nc3ccccn3)cc2)ccc1O [Sulfasalazine] | inactive: 0.845
9 | CN1CCCN=C1/C=C/c1cccc(O)c1 [Oxantel] | inactive: 0.891
10 | N#CCC(=O)NN [Cyacetacide (cyanoacetohydrazide)] | inactive: 1.21
11 | C[C@@H](O[C@H]1OCCN(Cc2n[nH]c(=O)[nH]2)[C@H]1c1ccc(F)cc1)c1cc(C(F)(F)F)cc(C(F)(F)F)c1 [Aprepitant] | inactive: 1.01
12 | CC1(C)S[C@@H]2[C@H](NC(=O)C3(N)CCCCC3)C(=O)N2[C@H]1C(=O)O [Cyclacillin] | inactive: 0.994
13 | CC=CC1=C(C(=O)O)N2C(=O)[C@@H](NC(=O)[C@H](N)c3ccc(O)cc3)[C@H]2SC1 [Cefprozil] | inactive: 0.821
14 | NC(=O)CC[C@H](N)C(=O)O [L-Glutamine] | inactive: 1.18
15 | CC(C)OC(=O)C(C)(C)Oc1ccc(C(=O)c2ccc(Cl)cc2)cc1 [Fenofibrate] | inactive: 1.14
16 | C[C@H]1c2cccc(O)c2C(=O)C2=C(O)[C@]3(O)C(=O)C(C(N)=O)=C(O)[C@@H](N(C)C)[C@@H]3[C@@H](O)[C@@H]21 [Doxycycline hyclate] | inactive: 0.543
17 | C[C@H]1c2cccc(O)c2C(=O)C2=C(O)[C@]3(O)C(=O)C(C(N)=O)=C(O)[C@@H](N(C)C)[C@@H]3[C@@H](O)[C@@H]21 [Doxycycline] | inactive: 0.511
18 | Clc1ccc(C(Cn2ccnc2)OCc2ccsc2Cl)c(Cl)c1 (stereo not given) [Tioconazole] | inactive: 0.707
19 | C[C@](N)(Cc1ccc(O)c(O)c1)C(=O)O [Methyl-DOPA (alpha-methyl-L-beta-3,4-dihydroxyphenylalanine)] | inactive: 0.929
20 | c1cnc(N2CCN(Cc3ccc4c(c3)OCO4)CC2)nc1 [Piribedil maleate] | inactive: 1.06
21 | O.O.O=C(O)c1cc(O)c2c(c1)[O][Bi][O]2 [Bismuth III gallate basic hydrate] | inactive: 0.96
22 | O=C(Cc1cccs1)N[C@@H]1C(=O)N2C(C(=O)O)=C(/C=C/c3ccc([N+](=O)[O-])cc3[N+](=O)[O-])CS[C@H]12 [Nitrocefin] | inactive: 0.867
23 | IC(I)I [Iodoform] | inactive: 1.24
24 | NCC(O)CC(=O)O (racemic) [DL-gamma-Amino-beta-hydroxybutyric Acid] | inactive: 1.01

Quoted at random: 2 records from the list, in no set order.
Row | Structure (SMILES) | cell-surface Lgr5 expression
11 | C[C@@H](O[C@H]1OCCN(Cc2n[nH]c(=O)[nH]2)[C@H]1c1ccc(F)cc1)c1cc(C(F)(F)F)cc(C(F)(F)F)c1 [Aprepitant] | inactive: 1.01
16 | C[C@H]1c2cccc(O)c2C(=O)C2=C(O)[C@]3(O)C(=O)C(C(N)=O)=C(O)[C@@H](N(C)C)[C@@H]3[C@@H](O)[C@@H]21 [Doxycycline hyclate] | inactive: 0.543

(next part)

Row | Structure (SMILES) | cell-surface Lgr5 expression
25 | CC(C)O [Isopropyl alcohol] | inactive: 1.24
26 | O.O=C([O-])CC(O)(CC(=O)[O-])C(=O)[O-].[K+].[K+].[K+] [Potassium citrate monohydrate] | inactive: 0.699
27 | Cc1cc(C(C)(C)C)c(O)c(C(C)(C)C)c1 [Butylated hydroxytoluene (2,6-Di-tert-butyl-4-methylphenol)] | inactive: 1.25
28 | COc1ccc(-c2cc(=S)ss2)cc1 [Anethole-trithione (Anetholtrithion)] | inactive: 0.965
29 | O=C([O-])O.[Na+] [Sodium bicarbonate, powder] | inactive: 1.08
30 | [Fe+3].[Fe+3].[O-2].[O-2].[O-2].[O-2].[Zn+2] [Calamine] | inactive: 0.886
31 | CCC(=O)[O-].[Na+] [Propionic acid sodium salt] | inactive: 0.936
32 | CCC(=O)[O-].[Na+] [Sodium propionate] | inactive: 0.539
33 | CN1CC(=O)N2[C@H](c3ccc4c(c3)OCO4)c3[nH]c4ccccc4c3C[C@@H]2C1=O [Tadalafil] | inactive: 0.987
34 | CC(C)NCC(O)COc1ccc(CCOCC2CC2)cc1 (stereo not given) [Betaxolol] | inactive: 1.1
35 | CCc1nc(N)nc(N)c1-c1ccc(Cl)cc1 [Pyrimethamine] | inactive: 0.998
36 | CCN(CC)CCNC(=O)c1cc(Cl)c(N)cc1OC [Metoclopramide hydrochloride] | inactive: 0.82
37 | CCOc1ccc2ccccc2c1C(=O)N[C@@H]1C(=O)N2[C@@H]1SC(C)(C)[C@@H]2C(=O)O [Nafcillin sodium salt monohydrate] | inactive: 0.729
38 | CN(C)C/C=C(/c1ccc(Br)cc1)c1cccnc1 [Zimelidine dihydrochloride] | inactive: 1.26
39 | CC(C)(CO)C(O)C(=O)NCCCO (stereo not given) [Panthenol (pantothenol)] | inactive: 0.705
40 | O=C(O)CCNC(=O)c1ccccc1 [Betamipron (n-benzoyl-b-alanine)] | inactive: 1.16
41 | CN1CCC[C@@H]1Cc1c[nH]c2ccc(CCS(=O)(=O)c3ccccc3)cc12 [Eletriptan hydrobromide] | inactive: 0.952
42 | NC(N)=NCCC[C@H](N)C(=O)O [L-Arginine L-glutamate salt] | inactive: 0.893
43 | O=C([O-])C(O)C(O)C(=O)O.[K+] (stereo not given) [Potassium bitartrate (Potassium hydrogen tartrate)] | inactive: 1
44 | O=C1OC2(c3cc(I)c(O)c(I)c3Oc3c2cc(I)c(O)c3I)c2c(Cl)c(Cl)c(Cl)c(Cl)c21 [Rose bengal] | inactive: 0.724
45 | OCc1cccnc1 [Nicotinyl alcohol (3-Pyridylcarbinol)] | inactive: 1.04
46 | NS(=O)(=O)c1cc2c(cc1Cl)NC(C(Cl)Cl)NS2(=O)=O (stereo not given) [Trichlormethiazide] | active: 1.44
47 | N[C@@H](C(=O)N[C@@H]1C(=O)N2C(C(=O)O)=C(Cl)CC[C@H]12)c1ccccc1 [Loracarbef] | inactive: 0.67
48 | CN(CCO)CC(O)Cn1cnc2c1c(=O)n(C)c(=O)n2C (stereo not given) [Xanthinol niacinate (Xanthinol Nicotinate)] | inactive: 1.05

Part of the list above, field by field:
NC(N)=NCCC[C@H](N)C(=O)O [L-Arginine L-glutamate salt]
  cell-surface Lgr5 expression: inactive: 0.893
O=C([O-])C(O)C(O)C(=O)O.[K+] (stereo not given) [Potassium bitartrate (Potassium hydrogen tartrate)]
  cell-surface Lgr5 expression: inactive: 1

Next part.

Row | Structure (SMILES) | cell-surface Lgr5 expression
49 | CCN(CC)CCOC(=O)c1ccc(N)cc1Cl [Chloroprocaine] | inactive: 0.953
50 | CC12CCC(CC1=O)C2(C)C (stereo not given) [Camphor] | inactive: 1.14
51 | Cc1c(-c2ccccc2)oc2c(C(=O)OCCN3CCCCC3)cccc2c1=O [Flavoxate hydrochloride] | inactive: 0.864
52 | NCCCC(=O)O [4-Aminobutyric acid (GABA)] | inactive: 1.24
53 | NCCCC(=O)O [GABA (gamma-Amino-n-Butyric Acid)] | inactive: 1.21
54 | CCCCCCCCCCCCCCCCCCCCCCO [Docosanol (Behenyl alcohol)] | inactive: 1.07
55 | Cc1cccc(C)c1NC(=O)C(C)N (stereo not given) [Tocainide hydrochloride] | inactive: 1.07
56 | CO/N=C(\C(=O)N[C@@H]1C(=O)N2C(C(=O)O)=C(CSc3nnnn3C)CS[C@H]12)c1csc(N)n1 [Cefmenoxime hydrochloride] | inactive: 0.944
57 | Nc1nc2[nH]cnc2c(=S)[nH]1 [Thioguanine (2-amino,6-mercaptopurine)] | inactive: 0.849
58 | O=C(OCC(O)CO)c1ccccc1Nc1ccnc2cc(Cl)ccc12 (stereo not given) [Glafenine] | active: 1.63
59 | COc1ccccc1OCC(O)CO (stereo not given) [Guaifenesin] | inactive: 1.27
60 | COc1ccccc1OCC(O)CO (stereo not given) [Guaifenesen (Guaiacol glyceryl ether)] | inactive: 1.11
61 | Cc1cc(=O)[nH]c(=S)[nH]1 [Methylthiouracil (6-Methyl-2-thiouracil)] | inactive: 1.25
62 | CN1[C@@H]2CC[C@H]1C[C@@H](OC(=O)c1c[nH]c3ccccc13)C2 [Tropisetron HCl] | inactive: 1.17
63 | CCOC(=O)C1=C(COCCN)NC(C)=C(C(=O)OC)C1c1ccccc1Cl (stereo not given) [Amlodipine besylate] | inactive: 1.05
64 | Cc1c(N(C)C)c(=O)n(-c2ccccc2)n1C [Aminopyrine (4-Dimethylamino-antipyrine)] | inactive: 1.14
65 | Cc1c(N(C)C)c(=O)n(-c2ccccc2)n1C [Aminopyrine (4 Dimethylamino antipyrene)] | inactive: 0.932
66 | NC(CCC(=O)O)C(=O)O (racemic) [DL-Glutamic acid monohydrate] | inactive: 0.692
67 | CC(=O)NS(=O)(=O)c1ccc(NC(=O)c2ccccc2C(=O)O)cc1 [Phthalylsulfacetamide] | inactive: 0.905
68 | O=C(c1ccccc1)C(O)c1ccccc1 (stereo not given) [Benzoin] | inactive: 1.11
69 | CC(S)C(=O)NCC(=O)O (stereo not given) [Tiopronin (n-2-mercaptopropionyl glycine)] | inactive: 1.01
70 | CNC[C@H](O)c1ccc(O)c(O)c1 [Epinephrine] | inactive: 1.57
